Experiment: Ejection force of compressed tablets (instrumented tablet press)
Conditions: Example 8: 1.0% lubricant, FIG. 21

Substance: magnesium stearate
- change of ejection forces after 60 minutes of blending: slightly decreased
